Measured values published in patent US20240174744A1, “METHODS OF TREATMENT USING PROTEIN BINDERS TO IRHOM2 EPITOPES” (SCIRHOM GMBH, priority 2021, published 2024).

B1: antibody 3 (antibody, V domains shown)
VH: QVTLKESGPGILQPSQTLSLTCSFSGFSLTTFAMGIGWVRQPSGKGLEWLAHIWWDGEKYNNPVLKSRLTISKDTSKNQVFLRIANVDTPDTATYYCARISSIYYIIDNWGQGTSVTVSS
VL: DIVLTQSPATLSVTPGHSVSLSCRASQSISNNLHWYQKKSHESPRLLIKYVSQSISGIPSRFSGSGSGTDFTLSINSVETEDFGMYFCQQSYNWPLTFGAGTKLELK
B2: antibody 5 (antibody, V domains shown)
VH: QVTLKESGPGILQPSQTLSLTCSFSGFSLSTFGMGVGWIRQPSGKGLEWLAHIWWDDEKYYNSALKSRLTISKATSKNQAFLKIANVDTADTATYYCARISNYGSNYWYFNVWGTGTTVTVSS
VL: QVVLTQSPALMSASPGEKVTMTCSAGSSVSCMYWYQQKPGSSPRVLIYDTSNLASGVPARFTGSGSGTSYSLTISRMEAEDAASYYCQQWNSYPLTFGAGTKLELK
B3: antibody 16 (antibody, V domains shown)
VH: QVTLKESGPGILQPSQTLSLTCSFSGFSLSTFALGVGWIRQPSGRGLEWLAHIWWDDDKYYNPALKSRLTISKDTSKNHVFLKIANVDTADTATYYCARITTYYYGMDYWGQGTSVTVSS
VL: B1 VL with T5S, H17D, S22F, S30G, N32H, K38Q, K39E, E42A, V51A
B4: antibody 22 (antibody, V domains shown)
VH: B2 VH with A80V
VL: B2 VL with C31Y, S84T
B5: antibody 34 (antibody, V domains shown)
VH: QVTLKESGPGILQPSQTLSLTCSFSGFSLSTFSLGVGWIRQSSGKGLEWLAHIWWDDEKYYNPALKSRLTISKDTSKNQVFLKIANVDAADTATYYCARAYYSKSYYALDYWGQGTSVTVSS
VL: DIQMTQSPSSLSASLGERVSLTCRASQEISGYLSWLQQKPDGTIKRLIYAASTLDSGVPKRFSGSRSGSDYSLAISSLESEDFADYYCLQYANFPFTFGSGTKLEIK
B6: antibody 42 (antibody, V domains shown)
VH: B2 VH with F24L, M34R, S63P, A74D, A80V, K83R, S101Q, N111D
VL: LIVLTQSPAIMSASPGEKVTMTCGATSRISYMFWYQQKPGSSPRVLIYDTSNLASGVPVRFSGSGSGTSYSLTISRVEAEDVATYYCQQWNSYPLTFGAGTKLELK
B7: antibody 43 (antibody, V domains shown)
VH: B2 VH with T3A, P42S, H52N, E58D, S63P, A74D, T75A, S101G, N111D
VL: B6 VL with L1Q, K18R, G24S, T26N, F33Y, V45L, V77M, V82A, Y86N, N91S
B8: antibody 44 (antibody, V domains shown)
VH: B2 VH with G44E, E58D, S63P, A74D, A80I, A85T, D91E, A98S, S101G, N111D
VL: QIVLTQSPAVMSASPGEKVTMTCTASSSVYYMYWYQQTPGSSPRLLIYDTSNLASGVPVRFSGSGSGTSYSLTISRMEAEDAATYYCQQWNTYPLTFGAGTKLELK
B9: antibody 50 (antibody, V domains shown)
VH: QVQLQQSGAELVRPGASVKVSCKASGYAFSNYLIEWVKQRPGQGLEWIGVINPGSGFTKYNEKFKGKATLTADKSSSTAYMQLSSLTSEDSAVYFCARGLYRAMDYWGQGTSVTVSS
VL: DIQMTQSPASQSASLGESVTITCLASQTIGTWLAWYQQKPGKSPQLLIYAAASLADGVPSRFSGGGSGTKFSFKISSLQAEDFVNYYCQQIYSTPYTFGGGTKLEIK

These binders were tested against mouse iR1 wild type (mouse) (assay: FACS on cells expressing mouse iR1 wild type).

binding, no binding (tested: 3 µg/ml):
B1, B2, B3, B4, B5, B6, B7, B8, B9

Changes are numbered by the printed parent chain. Results are given in words; binding and its absence hold for the method and conditions named.
